Laboratory results: the supplement of paper PMC12024529
Structures can show the parent of a compound that is named as a salt. This is one part of the list. Part of the spread comes from offsets between plates or batches.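 HEK293 lines stably express B-domain-deleted factor VIII fused to Gaussia luciferase, wild type or a misfolding-prone missense mutant. Scores equal triplicate-well mean luminescence minus DMSO mean, divided by DMSO standard deviation; scores of 2 or higher are hits. Low scores may indicate reduced secretion or worse cell viability.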

test system: HEK293 p.N1941S BDD-FVIII-Gluc; test: secreted FVIII-Gluc luciferase Z-score vs DMSO control; higher = more FVIII-Gluc secretion; details: 5 µM; 24 h

Secreted FVIII-Gluc luciferase Z-score, inactive:
COC(c1ccccc1)(c1ccccc1)[C@H](Oc1nc(C)cc(C)n1)C(=O)O [Ambrisentan] -0.871
CC#CCn1c(N2CCC[C@@H](N)C2)nc2c1c(=O)n(Cc1nc(C)c3ccccc3n1)c(=O)n2C [Linagliptin (BI-1356)] -0.155
Clc1ccc(C(Cn2ccnc2)OCc2c(Cl)cccc2Cl)c(Cl)c1 (centres undefined) [Isoconazole nitrate (Travogen)] -0.714
N=C(N)N/N=C/c1c(Cl)cccc1Cl [Guanabenz acetate] -0.769
Cc1ccc(-c2cc(C(F)(F)F)nn2-c2ccc(S(N)(=O)=O)cc2)cc1 [Celecoxib] -1.96
C=C1/C(=C\C=C2/CCC[C@]3(C)[C@@H]([C@H](C)/C=C/[C@H](C)C(C)C)CC[C@@H]23)C[C@@H](O)C[C@@H]1O [Doxercalciferol (Hectorol)] -0.293
CNCC[C@H](Oc1cccc2ccccc12)c1cccs1 [Duloxetine HCl (Cymbalta)] -2.18
Cc1ccc(Cl)c(Nc2ccccc2C(=O)O)c1Cl [Meclofenamate Sodium] -0.282
c1ccc2c(CC3=NCCN3)cccc2c1 [Naphazoline hydrochloride (Naphcon)] -1.92
O=c1oc2cc(O)ccc2s1 [Tioxolone] -0.115
O=C1CN2Cc3c(ccc(Cl)c3Cl)N=C2N1 [Anagrelide HCl] -1.29
CCc1ccc(CCOc2ccc(CC3SC(=O)NC3=O)cc2)nc1 (centres undefined) [Pioglitazone (Actos)] -0.882
COc1ccc(CN2CCN(C(c3ccc(F)cc3)c3ccc(F)cc3)CC2)c(OC)c1OC [Lomerizine HCl] -2.64
CC1CC(OC(=O)C(O)c2ccccc2)CC(C)(C)C1 (centres undefined) [Cyclandelate] 0.644
CCc1c2c(nc3ccc(OC(=O)N4CCC(N5CCCCC5)CC4)cc13)-c1cc3c(c(=O)n1C2)COC(=O)[C@]3(O)CC [Irinotecan HCl Trihydrate (Campto)] -4.96
CC(C(=O)O)c1cccc(Oc2ccccc2)c1 (centres undefined) [Fenoprofen calcium hydrate] -1.46
Oc1ncnc2[nH]ncc12 [Allopurinol (Zyloprim)] 0.928
CC(=O)N[C@@H](CS)C(=O)O [Acetylcysteine] 0.0724
CC(=O)O[C@H]1C(=O)[C@@]2(C)[C@H]([C@H](OC(=O)c3ccccc3)[C@]3(O)C[C@H](OC(=O)[C@H](O)[C@@H](NC(=O)c4ccccc4)c4ccccc4)C(C)=C1C3(C)C)[C@]1(OC(C)=O)CO[C@@H]1C[C@@H]2O [Paclitaxel (Taxol)] -11.4
C[C@@H]1O[C@@H]1P(=O)(O)O [Fosfomycin Tromethamine] 0.315
CC(=O)OCC(=O)[C@H]1CC[C@H]2[C@@H]3CCC4=CC(=O)CC[C@]4(C)[C@H]3CC[C@]12C [Deoxycorticosterone acetate] 1.1
CC[C@H](C)C(=O)O[C@H]1C[C@@H](C)C=C2C=C[C@H](C)[C@H](CC[C@@H]3C[C@@H](O)CC(=O)O3)[C@H]21 [Lovastatin (Mevacor)] -4.51
CC(C)(C)c1cc(C(C)(C)C)c(NC(=O)c2c[nH]c3ccccc3c2=O)cc1O [Ivacaftor (VX-770)] -3.49
CCCc1cc(=O)[nH]c(=S)[nH]1 [Propylthiouracil] -3.26
CS(=O)(=O)CCNCc1ccc(-c2ccc3ncnc(Nc4ccc(OCc5cccc(F)c5)c(Cl)c4)c3c2)o1 [Lapatinib] -0.116
Cc1ccc(C(=O)c2ccc(CC(=O)O)n2C)cc1 [Tolmetin Sodium] 1.49
CO[C@H]1C[C@@H]2CC[C@@H](C)[C@@](O)(O2)C(=O)C(=O)N2CCCC[C@H]2C(=O)O[C@H]([C@H](C)C[C@@H]2CC[C@@H](OCCO)[C@H](OC)C2)CC(=O)[C@H](C)/C=C(\C)[C@@H](O)[C@@H](OC)C(=O)[C@H](C)C[C@H](C)/C=C/C=C/C=C/1C [Everolimus (RAD001)] -5.39
C=C1c2cccc(O)c2C(O)=C2C(=O)[C@]3(O)C(O)=C(C(N)=O)C(=O)[C@@H](N(C)C)[C@@H]3[C@@H](O)[C@H]12 [Methacycline hydrochloride (Physiomycine)] -5.9
COc1cc(NS(=O)(=O)c2ccc(N)cc2)nc(OC)n1 [Sulphadimethoxine] -0.0658
O=C(OCC(O)CO)c1ccccc1Nc1ccnc2cc(Cl)ccc12 (centres undefined) [Glafenine HCl] 1.31
C=C1[C@H](CO)[C@@H](O)C[C@@H]1n1cnc2c(=O)[nH]c(N)nc21 [Entecavir hydrate] -0.508
Cc1cnc(C(=O)O)c[n+]1[O-] [Acipimox] -0.932
CCCc1nc2c(C)cc(-c3nc4ccccc4n3C)cc2n1Cc1ccc(-c2ccccc2C(=O)O)cc1 [Telmisartan (Micardis)] 0.9
CCC[S+]([O-])c1ccc2[nH]c(NC(=O)OC)nc2c1 (centres undefined) [Albendazole Oxide (Ricobendazole)] -0.0122
NCCc1ccc(O)c(O)c1 [Dopamine hydrochloride (Inotropin)] 0.536
C[C@@H](NCCCc1cccc(C(F)(F)F)c1)c1cccc2ccccc12 [AMG-073 HCl (Cinacalcet hydrochloride)] 0.691
CC(C)OC(=O)C(C)(C)Oc1ccc(C(=O)c2ccc(Cl)cc2)cc1 [Fenofibrate (Tricor, Trilipix)] -0.318
O=C(O)CCCC[C@@H]1SC[C@@H]2NC(=O)N[C@@H]21 [Biotin (Vitamin B7)] 0.407
C#C[C@]1(O)CC[C@H]2[C@@H]3CCc4cc(O)ccc4[C@H]3CC[C@@]21C [Ethinyl Estradiol] -3.77

3 entries picked at random from those above, as already listed:
Secreted FVIII-Gluc luciferase Z-score, inactive:
O=C(OCC(O)CO)c1ccccc1Nc1ccnc2cc(Cl)ccc12 (centres undefined) [Glafenine HCl] 1.31
O=c1oc2cc(O)ccc2s1 [Tioxolone] -0.115
C[C@@H](NCCCc1cccc(C(F)(F)F)c1)c1cccc2ccccc12 [AMG-073 HCl (Cinacalcet hydrochloride)] 0.691
